## Results from one PubChem assay

Source: PubChem BioAssay AID1224904 (Broad Institute, 2016).

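Control-channel Italica luciferase signal in doxycycline-induced 293T-iDUX4 cells, given as percent activity after a 24-hour treatment. The test concentration is not given here. Percent change in the Italica control signal; more negative values mean stronger inhibition, which points to nonspecific, tet-on or cytotoxic effects.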

Values are in %. Common to all entries: measured here: Italica tet-on control reporter. This is a side read-out of the assay, for part of the compounds, not drawn at random.

SMILES | activity change (%)
O=C(CC1CC1)N1[C@@H](CO)[C@@H](c2ccccc2)C12CN(Cc1cc(F)ccc1F)C2 | -10.14
CO[C@@H]1CN(C)C(=O)c2ccc(NC(=O)Nc3ccc(C(F)(F)F)cc3)cc2OC[C@H](C)NC[C@H]1C | -3.569
CN(C)C(=O)c1cccc(-c2ccc(C3[C@@H]4CN(S(=O)(=O)c5ccc(F)cc5)C[C@H]3N4)cc2)c1 (stereo partly specified) | -3.218
N#Cc1ccc(-c2ccc3c(c2)[C@H]2[C@H](CCN2C(=O)c2ccc4c(c2)OCO4)[C@@H](CO)N3)cc1 | -33.49
COCC(=O)Nc1ccc2c(c1)[C@@H]1C[C@@H](CC(=O)NCc3ccc(-c4ccccc4)cc3)O[C@@H](CO)[C@@H]1O2 | -7.017
CO[C@H](C(=O)N(C)C[C@@H]1OCc2ccccc2-c2c(n(C)c3ccccc23)C(=O)N([C@H](C)CO)C[C@@H]1C)c1ccccc1 | -94.05
Cc1cccc(-c2ccc([C@@H]3[C@H]4CN(C(=O)c5ccccc5)CC(=O)N4[C@H]3CO)cc2)c1 | -16.81
O=C(c1ccc2c(c1)OCO2)N1CC(=O)N2[C@H](CO)[C@H](c3ccc(C#CCC4CCCC4)cc3)[C@H]2C1 | -24.76
C/C=C/c1ccccc1[C@H]1[C@@H](C#N)N(S(=O)(=O)c2cccc(F)c2)[C@H]1CO | -1.468
COc1ccc(CN2C[C@H](C)[C@@H](OC)CN(C)C(=O)c3cc(NC(=O)c4nc5ccccc5s4)ccc3OC[C@@H]2C)cc1 | -11.91
O=C(C[C@@H]1CC[C@H]2[C@@H](COC[C@H](O)CN2Cc2cccc(C(F)(F)F)c2)O1)NCCc1ccccc1 | -18.44
CN1C(=O)c2cc(NC(=O)c3cscn3)ccc2OC[C@H]2O[C@H](CC(=O)NCc3ccc(Cl)c(Cl)c3)CC[C@H]21 | -18.63
COc1ccccc1CN1C[C@@H]2N[C@H](C1)C2c1ccc(-c2ccc(C(=O)N(C)C)cc2)cc1 (stereo partly specified) | -5.827
O=C(C1CCC1)N1CC[C@@H]2[C@H](CO)Nc3ccc(C#Cc4ccc(F)cc4)cc3[C@@H]21 | -12.86
CN1c2ccc(-c3cccc(C#N)c3)cc2[C@@H]2[C@@H](CCN2C(=O)Cc2ccccn2)[C@H]1CO | -29.42
C[C@@H]1CN([C@H](C)CO)C(=O)c2c(c3ccccc3n2C)-c2ccccc2CO[C@@H]1CN(C)S(=O)(=O)c1cccc(F)c1 | 4.036
C[C@@H]1CCCCO[C@@H](CN(C)Cc2ccc(C(F)(F)F)cc2)[C@H](C)CN([C@H](C)CO)C(=O)c2cc(NC(=O)c3ccccc3)ccc2O1 | -71.53
O=C(C[C@H]1CC[C@@H]2[C@H](COC[C@@H](O)CN2Cc2ccc(Oc3ccccc3)cc2)O1)Nc1nccs1 | -35.76
Cc1ccc(S(=O)(=O)N2CC[C@@H]3[C@H](CO)Nc4ccc(-c5ccc(C#N)cc5)cc4[C@@H]32)cc1 | -46.58
COc1ccccc1NC(=O)N1CCCCN2[C@@H](CO)[C@H](c3ccc(-c4cccc(F)c4)cc3)[C@@H]2C1 | -99.07
COc1ccc(S(=O)(=O)N2CC[C@H]3[C@H](CO)Nc4ccc(-c5ccccc5F)cc4[C@H]32)cc1 | -2.787
OC[C@@H]1[C@@H](c2ccc(C#CC3CCCC3)cc2)[C@H]2CN(CCC(F)(F)F)CCCCN12 | -63.32
O=C(C[C@@H]1C[C@@H]2c3cc(NC(=O)c4cccnc4)ccc3O[C@@H]2[C@@H](CO)O1)NCc1ccc(Oc2ccccc2)cc1 | -57.06
COc1ccc2c3c([nH]c2c1)[C@H](CO)N(Cc1ccccc1)CC31CCN(C(=O)NC(C)C)CC1 | -15.29
COc1ccc2c3c(n(C)c2c1)[C@H](CO)N(C(=O)C1CC1)CC31CN(Cc2ccccc2OC)C1 | -96.82
CN(C)C(=O)c1cccc(-c2ccc3c(c2)[C@H]2[C@H](CCN2C(=O)c2ccccc2)[C@@H](CO)N3C)c1 | -38.74
Cc1ccccc1S(=O)(=O)N1CCCCN2[C@H](C1)[C@H](c1ccc(-c3cccnc3)cc1)[C@@H]2CO | 0.791
CN1C(=O)c2cc(NC(=O)c3ccc(C(F)(F)F)cc3)ccc2OC[C@H]2O[C@@H](CC(=O)NC3Cc4ccccc4C3)CC[C@H]21 | -30.67
Cc1ccccc1S(=O)(=O)N(C)C[C@H]1OCc2ccccc2-c2c(n(C)c3ccccc23)C(=O)N([C@H](C)CO)C[C@H]1C | -34.35
O=C(C[C@H]1C[C@@H]2c3cc(NS(=O)(=O)c4ccc(F)cc4)ccc3O[C@@H]2[C@H](CO)O1)NCc1ccc(Oc2ccccc2)cc1 | -15.15
COc1ccccc1-c1ccc([C@H]2[C@H](CO)N3CCCCN(C(=O)c4cccnc4)C[C@@H]23)cc1 | -7.947
Cc1cccc(-c2ccc([C@@H]3[C@@H](CO)N4C(=O)CN(C(=O)Cc5ccccn5)C[C@@H]34)cc2)c1 | -5.788
COc1ccc(-c2ccc3c(c2)[C@@H]2[C@@H](CCN2C(=O)c2ccc(F)cc2)[C@@H](CO)N3C)cc1 | -67.42
Cc1ccccc1-c1ccc([C@H]2[C@@H](CO)N3C(=O)CN(C(=O)c4ccc(F)cc4)C[C@@H]23)cc1 | -6.178
O=C(C[C@H]1C[C@@H]2c3cc(NC(=O)Nc4ccccc4)ccc3O[C@@H]2[C@@H](CO)O1)NCc1ccccc1 | -8.216
N#Cc1ccc(-c2ccc(C3[C@@H]4CN(C(=O)c5ccccn5)C[C@H]3N4)cc2)cc1 (stereo partly specified) | -38.76
CCS(=O)(=O)N1CCC2(CC1)CN(Cc1ccccc1OC)[C@H](CO)c1c2c2ccc(OC)cc2n1C | -29.49
Cc1ccc(-c2ccc([C@@H]3[C@@H](CO)N4C(=O)CN(C(=O)Nc5ccc(F)cc5)C[C@H]34)cc2)cc1 | -4.019

Once more, the final 5:

Cc1ccccc1-c1ccc([C@H]2[C@@H](CO)N3C(=O)CN(C(=O)c4ccc(F)cc4)C[C@@H]23)cc1 read activity change -6.178%.
O=C(C[C@H]1C[C@@H]2c3cc(NC(=O)Nc4ccccc4)ccc3O[C@@H]2[C@@H](CO)O1)NCc1ccccc1 read activity change -8.216%.
N#Cc1ccc(-c2ccc(C3[C@@H]4CN(C(=O)c5ccccn5)C[C@H]3N4)cc2)cc1 (stereo partly specified) read activity change -38.76%.
CCS(=O)(=O)N1CCC2(CC1)CN(Cc1ccccc1OC)[C@H](CO)c1c2c2ccc(OC)cc2n1C read activity change -29.49%.
Cc1ccc(-c2ccc([C@@H]3[C@@H](CO)N4C(=O)CN(C(=O)Nc5ccc(F)cc5)C[C@H]34)cc2)cc1 read activity change -4.019%.